Measurements from PubChem BioAssay AID602313 (National Center for Advancing Translational Sciences (NCATS), 2012).
About 760 (0.19%) of roughly 390,000 compounds were called active. The shares of active, inactive and inconclusive entries below differ from those in the screen. Calls follow the shape of the dose curve; as a rule, active = well fitted inhibition curve with a large enough effect; inconclusive = small, poorly fitted or top-dose-only effect; inactive = flat fitted curve, though single readings scatter. Potencies of inconclusive entries are doubtful fits and often do not repeat.

experiment: qHTS for Inhibitors of Vif-A3F Interactions: qHTS; conditions: HeLa A3F-eYFP + Vif (tagged APOBEC3F with the HIV-1 protein that degrades it), YFP fluorescence increase; series mostly up to 46.1 µM; also: nearly all actives have a fitted effect of over 65% in size
Procedure, shortened: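 HeLa cells stably expressing A3F-eYFP plus Vif, plated and incubated overnight at 37 deg C, then exposed to compounds overnight at 37 deg C. Blocked degradation read as raised yellow fluorescence (Ex 488/Em 500-530).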
Potency is read from the fitted curve at half-maximal effect.

SMILES | Potency
C=CCNc1oc(-c2cccc(F)c2)nc1C#N | inconclusive: 20 µM [inhibitor, single point]
O=C(NCCc1ccccc1)c1ccc(CSc2nc3ccncc3n2Cc2ccccc2F)cc1 | inactive
O/C=c1\ccc2cccc3nc(C(F)(F)F)nc1c23 | inconclusive: 3.55 µM [inhibitor, partial curve, poor fit]
CC(=O)N1c2ccc(Cl)cc2C2C=CCC2C1c1cccc2ccccc12 (centres undefined) | inconclusive: 35.5 µM [inhibitor, single point]
CCOC(=O)C1CCN(c2nc3ccccc3nc2C(C#N)C(=O)OC(C)COC)CC1 (centres undefined) | inconclusive: 35.5 µM [inhibitor, single point]
COCCN(CCOC)Cc1c(O)ccc2c1O/C(=C\c1ccco1)C2=O | inconclusive: 15.8 µM [inhibitor, partial curve, poor fit]
O=C(CC(=O)c1cccnc1)c1ccccc1 | inconclusive: 25.1 µM [inhibitor, single point]
N#Cc1cc2c([nH]c1=S)CCCCCC2 | inactive
CCCCN1C(C)=CC(=C2C(=O)c3ccccc3C2=O)C=C1C | inconclusive: 35.5 µM [inhibitor, single point]
O=C(O)C1Nc2c(C(F)(F)F)ccc(Cl)c2C2C=CCC12 (centres undefined) | inconclusive: 35.5 µM [inhibitor, single point]
O=C(NCc1ccco1)c1cc(S(=O)(=O)N2CCCc3ccccc32)ccc1Cl | inactive
Clc1ccc(CNc2cc(-c3ccccc3)nc3nncn23)cc1 | inconclusive: 35.5 µM [inhibitor, single point]
COc1ccc(C)cc1Nc1n[n+](-c2ccccc2)c(-c2cc([N+](=O)[O-])cc(OC)c2O)s1 | active: 22.4 µM
CCOC(=O)c1c(CSc2ccc(C)cc2)oc2ccc(O)cc12 | inactive
COCCNC(=O)Cn1nc(Cc2ccncc2)c2ccccc2c1=O | inconclusive: 6.31 µM [inhibitor, single point]
O=C(/C=C\c1cn(-c2ccccc2)nc1-c1ccccc1)Nc1nccs1 | inconclusive: 35.5 µM [inhibitor, single point]
Cc1cccnc1NC(=S)NC(=O)c1oc2ccccc2c1C | inconclusive: 4.47 µM [inhibitor, single point]
O=C(O)/C=C/C(=O)Nc1ccc(SC(F)(F)C(F)(F)C(F)(F)F)cc1 | inactive
CC(C)OC(=O)CN1C(=O)S/C(=C/c2ccc(N3CCCCC3)o2)C1=O | inconclusive: 2.82 µM [inhibitor, partial curve, poor fit]
COc1ccc(S(=O)(=O)N2CCCc3ccccc32)cc1OC | inactive
CN(C)c1ccc(/C=C(\C#N)c2ccccn2)cc1 | inconclusive: 35.5 µM [inhibitor, single point]
O=C(COC(=O)c1nc(Cl)ccc1Cl)NNC(=O)c1cccs1 | inconclusive: 6.31 µM [inhibitor, single point]
CCOC(=O)C1=C(N)Oc2c(c(=O)[nH]c3ccccc23)C1c1ccccc1 (centres undefined) | inconclusive: 35.5 µM [inhibitor, single point]

SMILES | Potency
Cc1[nH]nc2c1/C(=N\O)CC(C)(C)C2 | inactive
COc1ccc(NC(=O)Cn2cc(C(=O)C3CCCCC3)c3ccccc32)cc1 | inactive
CCCN1CCc2c(sc(NC(=O)c3ccc(S(=O)(=O)N4CCN(C(=O)OCC)CC4)cc3)c2C(N)=O)C1 | active: 10 µM
C=C(C)CNC(=S)NN=C1c2ccccc2-c2ccccc21 | inconclusive: 5.62 µM [inhibitor, single point]
CC1=C(C(N)=O)C(c2ccc(Br)cc2)n2nc(CCCO)nc2N1 (centres undefined) | inconclusive: 10 µM [inhibitor, partial curve, poor fit]
O=C(NNC1=Nc2cccc3cccc1c23)c1ccc(Br)cc1 | inconclusive: 4.47 µM [inhibitor, partial curve]
CC(C)OC(=O)c1cc(C(=O)c2cc(F)ccc2O)coc1=N | active: 11.2 µM
Cc1cc2nnc(SC(C)C#N)n2c2ccccc12 (centres undefined) | inactive
O=S(=O)([O-])CCC[n+]1ccc(Oc2ccccc2)cc1 | inconclusive: 28.2 µM [inhibitor, single point]
CCOc1ccc(CCNC(=O)c2cc(S(=O)(=O)N3CCOCC3)ccc2C)cc1OCC | inconclusive: 3.98 µM [inhibitor, single point]
CC(C)N(CCNC(=O)c1oc(=O)c2ccccc2c1-c1ccccc1)Cc1ccco1 | inconclusive: 1.78 µM [inhibitor, partial curve, poor fit]
Oc1ccc(/C=N/N2CCCCC2)c(O)c1 | inactive
COc1ccccc1NS(=O)(=O)c1cc(NC(=O)/C=C/c2cccs2)ccc1N1CCOCC1 | inactive
Cc1ccc(NC(=S)N/N=C2\CCCCC2C)cc1 (centres undefined) | active: 22.4 µM
COc1cc(-c2cc(OC)c3c(C)oc(C)c3c(=O)c2)ccc1OC(=O)c1ccccc1F | inactive
Cc1ccccc1OCC(=O)NN1Cc2ccccc2C1=N | inactive
Cc1ccc(-n2c(P(C)(=O)O)nc3ccccc32)cc1 | inconclusive: 10 µM [inhibitor, partial curve, poor fit]
O=C(Nc1nc2ccccc2s1)c1ccc([N+](=O)[O-])o1 | inconclusive: 6.31 µM [inhibitor, single point]
CCC1CN(C(=O)N2CCC(C(=O)NCCc3ccccc3)CC2)c2ccccc2O1 (centres undefined) | inconclusive: 3.55 µM [inhibitor, single point]
CCOc1ccccc1/C=N/NC(=O)c1nnn(-c2nonc2N)c1CN1CCC(C)CC1 | inconclusive: 15.8 µM [inhibitor, single point]
Cc1ccccc1N(CC(=O)NC1CCCCC1)C(=O)CCC(=O)Nc1nccs1 | inconclusive: 2.24 µM [inhibitor, partial curve, poor fit]
COc1ccc(NC(=O)/C(C#N)=C/c2ncc([N+](=O)[O-])n2C)c(OC)c1 | inconclusive: 1.78 µM [inhibitor, partial curve, poor fit]
CCn1c(SCC(=O)NCc2ccc3c(c2)OCO3)nnc1-c1cccs1 | inactive

Arranged by SMILES length (high to low): part of the list above.
SMILES | Potency
COc1ccc(NC(=O)/C(C#N)=C/c2ncc([N+](=O)[O-])n2C)c(OC)c1 | inconclusive: 1.78 µM [inhibitor, partial curve, poor fit]
Cc1ccccc1N(CC(=O)NC1CCCCC1)C(=O)CCC(=O)Nc1nccs1 | inconclusive: 2.24 µM [inhibitor, partial curve, poor fit]
O=S(=O)([O-])CCC[n+]1ccc(Oc2ccccc2)cc1 | inconclusive: 28.2 µM [inhibitor, single point]
C=C(C)CNC(=S)NN=C1c2ccccc2-c2ccccc21 | inconclusive: 5.62 µM [inhibitor, single point]

Following part

SMILES | Potency
CC(=O)c1ccc(N2CCN(C(=O)C3CCC3)CC2)cc1 | inactive
O=C(Nc1cccc(F)c1)c1cccnc1 | inconclusive: 12.6 µM [inhibitor, partial curve, poor fit]
CC(C)CC(NC(=O)OCc1ccccc1)C(=O)NC(Cc1ccccc1)C(=O)CCl (centres undefined) | inactive
O=[N+]([O-])c1ccc(NCc2ccc3c(c2)OCO3)cc1 | inconclusive: 35.5 µM [inhibitor, single point]
COCCN1C(=O)/C(=C/c2ccc(N3CCCC3)cc2C)SC1=S | inconclusive: 2.51 µM [inhibitor, full curve, poor fit]
Cc1ccc2c(c1)sc(-c1ccc(N(C)C)cc1)[n+]2C | active: 22.4 µM
Cc1ccc(C(=O)N/C(=C/c2ccc(-c3ccc([N+](=O)[O-])cc3)o2)C(=O)NCCCN(C)C)cc1 | inconclusive: 12.6 µM [inhibitor, partial curve, poor fit]
O=S(=O)(Nc1nc2ccccc2nc1Cl)c1ccc(Br)cc1 | inconclusive: 35.5 µM [inhibitor, single point]
Cc1ccccc1NC(=S)NCc1ccc2c(c1)cc(C)n2C | inconclusive: 5.62 µM [inhibitor, full curve, poor fit]
N#Cc1ccc(C23OCCN2CCn2c3c3ccccc3[n+]2[O-])cc1 (centres undefined) | inconclusive: 11.2 µM [inhibitor, partial curve, poor fit]
C=C1C(=O)O[C@@]23[C@H]1CC[C@@H](C)[C@@H]2CC[C@@]1(C)O[C@@H]31 | inactive
COc1ccc(NC(=O)COC(=O)CCCOc2ccc(Cl)cc2Cl)cc1Cl | inconclusive: 6.31 µM [inhibitor, single point]
COc1ccc(-c2cc(C)no2)cc1S(=O)(=O)N1CCOc2ccc(Cl)cc21 | inconclusive: 22.4 µM [inhibitor, single point]
COc1cccc(-n2c(SCC(N)=O)nc3ccccc3c2=O)c1 | inconclusive: 25.1 µM [inhibitor, single point]
CCCCS(=O)(=O)N1CCC(C(=O)NCC2CCCO2)CC1 (centres undefined) | inconclusive: 6.31 µM [inhibitor, single point]
Cc1cc2nc(-c3ccc(SCC(=O)Nc4ccc(S(=O)(=O)NC5CC5)cc4)nc3)[nH]c2cc1C | inconclusive: 28.2 µM [inhibitor, single point]
CCCCn1c(=S)[nH]c2cc(S(=O)(=O)N3CCOCC3)ccc21 | inactive
COC(=O)c1c(NC(=O)C2(C)Cc3ccccc3C(=O)O2)sc2c1CCCC2 (centres undefined) | inactive
COc1cc([N+](=O)[O-])ccc1-c1ccc(/C=N/NC(=O)OC(C)(C)C)o1 | inconclusive: 10 µM [inhibitor, partial curve, poor fit]
COc1ccc(C2SCCN2C(=S)Nc2ccc(Cl)cc2)cc1 (centres undefined) | inconclusive: 35.5 µM [inhibitor, single point]
COC(=O)c1cc(NC(=O)c2cccc(C(F)(F)F)c2)c(=O)oc1C/C=N/OCc1cccc(Cl)c1Cl | inconclusive: 35.5 µM [inhibitor, single point]
COc1ccc2oc(=O)c(-c3nc(-c4ccc(C)c(C)c4)cs3)cc2c1 | inconclusive: 3.16 µM [inhibitor, partial curve, poor fit]
CCOC(=O)c1cc2c(=O)n3ccccc3nc2n(Cc2ccco2)c1=NC(=O)c1ccc(F)cc1 | inconclusive: 11.2 µM [inhibitor, partial curve, poor fit]
